Reference: patent US20080108894A1, “Methods and Systems of Analyzing Clinical Parameters and Methods of Producing Visual Images” (priority 2004, published 2008)
“And” between values parts separate entries of the source, which are not always exact repeats. Equal entries are not always repeated.

System: myocardium
Assay: SI0 and A′ maps before and after contrast agent administration in a test dog
Assay type: in vivo
Procedure: FIG. 15 illustrates two examples of equatorial short axis SI0 (top) and A′ (bottom) maps. The ones on the left were generated in a test dog before contrast agent (CA) administration and those on the right were generated in the same dog 20 minutes after Gd(DTPA) administration. Average (+/−SD) SI0 values were 142+/−22 and 150+/−23 before and after CA administration, respectively. Note the great variability of SI0 values due to field inhomogeneity and regional differences in proton density. Average (+/−SD) A′ values were 1.9+/−0.01 and 1.9+/−0.02 before and after CA. […] No significant difference was found between SI0 values before (141.8±21.8) and 20 minutes after (150.4±22.6) CA administration. […] The parameter A′ (the parameter representing the accuracy of the 180° pulse), however, may in principle be influenced by the administration of a contrast agent, because paramagnetic agents alter the magnetic susceptibility of tissue. This may lead to local errors in the accuracy of the 180° pulse, unless the imager readjusts the 180° pulse for each use of the IR sequence. […] This is most likely due to the scanner's successful automatic recalibration of the 180° pulse. Thus, even if the susceptibility of the tissue in the imaged region of interest is affected by the presence of a contrast agent, the scanner corrects these slight changes by adjusting the 180° pulse, resulting in practically the same A′ values that were obtained in the absence of the contrast agent. Therefore, it was reasonable to fix the value of A′ to 1.9, and this constant number has been always used in the calculations.

## O=C([O-])CN(CCN(CC(=O)[O-])CC(=O)O)CCN(CC(=O)[O-])CC(=O)O.[Gd+3] [Gd(DTPA)]
Before vs 20 minutes after Gd(DTPA)
  change in SI0 or A′ due to administration: No significant change
myocardium, 20 minutes after Gd(DTPA), before CA 1.9+/−0.01
  Average A′ after CA administration: 1.9+/−0.02
myocardium, 20 minutes after Gd(DTPA), before CA 142+/−22 (141.8±21.8)
  Average SI0 after CA administration: 150.4±22.6 and 150+/−23
